{"source": "patent US4036984A", "about": "“Soil fungi inhibiting agent” (Nissan Chemical Industries, Ltd., priority 1974, dated 1977)", "system": "Fusarium oxysporum f. cucumerinum", "test": "Test 2: control of Fusarium wilt of cucumber (emulsion, pot test)", "format": "in vivo", "conditions": "emulsion irrigated 300 ppm, then 1000 ppm twice, third week of transplanting", "note": "At least one read-out could not be matched to a standard name with certainty.", "data": [{"smiles": "C=CC(=O)OCCOc1ccccc1", "note": "[Compound No. 23, β-phenoxyethylacrylate]", "values": [{"measurement": "Effectiveness Rating", "result": 68}]}]}
